Test results from BigSolDB 2.1.

CCCCc1oc2ccccc2c1C(=O)c1cc(I)c(OCCN(CC)CC)c(I)c1.Cl
solubility (mole fraction)
Settings | 293.2 K | 298.2 K | 303.2 K | 308.2 K | 313.2 K
in NMP | 0.00923 | 0.012 | 0.0137 | 0.0173 | 0.0199
in ethanol | 0.0012 | 0.00158 | 0.00235 | 0.00468 | 0.00673
in water | 4.59e-06 | 6.45e-06 | 8.38e-06 | 9.58e-06 | 1.22e-05
